Reference: patent US11744787B2, “Menthol-containing aroma preparations” (Symrise AG, priority 2016, dated 2023)

Experiment: Sensory evaluation of the taste profile of aroma mixtures by a panel of 5 trained testers
Assay type: in vivo
Conditions: 0.5% by weight in unsweetened, unflavored standard chewing sweet preparation; rating (5)=is very true to (0)=is largely untrue; mean values of 5 trained testers
Protocol: The taste profile of various aroma mixtures was assessed by a panel consisting of 5 trained testers. To that end, the mixtures were incorporated in an amount of 0.5% by weight into an unsweetened and unflavored standard chewing sweet preparation. The evaluation was made according to the rating (5)=is very true to (0)=is largely untrue. The mean values are given.

**Q.** With C=CCc1ccc(O)c(OC)c1 [Example C1, 4-Allyl-2-methoxyphenol] as the molecule, how does the Burning taste read?
**A.** 4.5

**Q.** And the Painful sensation?
**A.** 3.0

**Q.** What about the Warm-spicy taste of the same molecule?
**A.** 4.2
